Data source: PubChem BioAssay AID1259405 (NCATS, 2018)
Screen: 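Silenced genes that increase secreted GFP made by CHO cells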 (primary screen). Cell system: Chinese hamster CHO-K1 ovary cells with stable secreted eGFP expression. Reagent: single siRNA against mouse genes, 0.8 pmol siRNA per well (2 µl of 400 nM stock). Time to read-out: 3 days. Detection: 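Per-well intracellular GFP measured by laser scanning cytometry, plus viability from ATP luminescence, each relative to plate median of non-targeting control wells, in %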. Reading the numbers: GFP, % of control: higher = more GFP per well, higher productivity; viability (ATP), % of control: higher = more viable cells (more ATP). Hit rule: 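Called active when intracellular GFP, relative to negative control, is at or above 120%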.
This is an unselected part of about 50,000 reagents tested. About 4,000 of them (8%) were called active. 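Mouse siRNA library applied to hamster cells; one well for each siRNA.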 Reagents against one gene are numbered here. Reagent sequences are not shown.

Silencing of B3galt1 (GeneID 26877) #1 resulted in: GFP, % of control 95.4; viability (ATP), % of control 98.7; inactive.
B3galt1 (GeneID 26877) #2 showed GFP, % of control 109; viability (ATP), % of control 130; inactive.
B3galt1 (GeneID 26877) #3 gave GFP, % of control 123; viability (ATP), % of control 138; active.
After knock-down of Eri3 (GeneID 140546) #1, the screen gave GFP, % of control 84.8; viability (ATP), % of control 76.4; inactive.
Eri3 (GeneID 140546) #2 gave GFP, % of control 78.7; viability (ATP), % of control 91.5; inactive.
Eri3 (GeneID 140546) #3 showed GFP, % of control 151; viability (ATP), % of control 121; active.
Commd2 (GeneID 52245) #1 showed GFP, % of control 82.8; viability (ATP), % of control 105; inactive.
Knock-down of Commd2 (GeneID 52245) #2 resulted in: GFP, % of control 59.8; viability (ATP), % of control 76.4; inactive.
Commd2 (GeneID 52245) #3 scored GFP, % of control 73.8; viability (ATP), % of control 112; inactive.
Silencing of Nudt10 (GeneID 102954) #1 resulted in: GFP, % of control 129; viability (ATP), % of control 82.8; active.
Nudt10 (GeneID 102954) #2 showed GFP, % of control 123; viability (ATP), % of control 80; active.
For Nudt10 (GeneID 102954) #3, the entry reads GFP, % of control 76.1; viability (ATP), % of control 67.2; inactive.
For Oxct1 (GeneID 67041) #1 the deposit lists GFP, % of control 96.8; viability (ATP), % of control 89.2; inactive.
With knock-down of Oxct1 (GeneID 67041) #2, the record shows GFP, % of control 19.1; viability (ATP), % of control 47.1; inactive.
Oxct1 (GeneID 67041) #3 gave GFP, % of control 141; viability (ATP), % of control 116; active.
Fbxw10 (GeneID 213980) #1 scored GFP, % of control 42.1; viability (ATP), % of control 52.2; inactive.
For Fbxw10 (GeneID 213980) #2, the entry reads GFP, % of control 73.8; viability (ATP), % of control 41.8; inactive.
Silencing of Fbxw10 (GeneID 213980) #3 gave: GFP, % of control 58.5; viability (ATP), % of control 55.7; inactive.
Against Osbp2 (GeneID 74309) #1 the deposit lists GFP, % of control 84.8; viability (ATP), % of control 90.3; inactive.
Against Osbp2 (GeneID 74309) #2 the deposit lists GFP, % of control 72.3; viability (ATP), % of control 56.4; inactive.
Against Osbp2 (GeneID 74309) #3, the values are GFP, % of control 116; viability (ATP), % of control 133; inactive.
Bco1 (GeneID 63857) #1 gave GFP, % of control 49.2; viability (ATP), % of control 62.8; inactive.
Bco1 (GeneID 63857) #2 showed GFP, % of control 69.6; viability (ATP), % of control 67.9; inactive.
After knock-down of Bco1 (GeneID 63857) #3 the results were GFP, % of control 63.7; viability (ATP), % of control 62.2; inactive.
Against F12 (GeneID 58992) #1 the deposit lists GFP, % of control 75.9; viability (ATP), % of control 98.7; inactive.
Depletion of F12 (GeneID 58992) #2 resulted in: GFP, % of control 145; viability (ATP), % of control 88.6; active.
With knock-down of F12 (GeneID 58992) #3, the record shows GFP, % of control 137; viability (ATP), % of control 72.8; active.
Depletion of Rims3 (GeneID 242662) #1 resulted in: GFP, % of control 109; viability (ATP), % of control 85.8; inactive.
With knock-down of Rims3 (GeneID 242662) #2, the record shows GFP, % of control 85.2; viability (ATP), % of control 84.9; inactive.
After knock-down of Rims3 (GeneID 242662) #3, the record shows GFP, % of control 47.9; viability (ATP), % of control 56.4; inactive.
For Ndufb8 (GeneID 67264) #1, the values are GFP, % of control 60.7; viability (ATP), % of control 78.4; inactive.
With knock-down of Ndufb8 (GeneID 67264) #2, the screen gave GFP, % of control 65.7; viability (ATP), % of control 71.5; inactive.
With knock-down of Ndufb8 (GeneID 67264) #3, the screen gave GFP, % of control 51; viability (ATP), % of control 44.7; inactive.
H2-D4 (GeneID 14967) #1 showed GFP, % of control 57.5; viability (ATP), % of control 75.6; inactive.
H2-D4 (GeneID 14967) #2 gave GFP, % of control 89.6; viability (ATP), % of control 60.9; inactive.
Silencing of H2-D4 (GeneID 14967) #3 gave: GFP, % of control 25.5; viability (ATP), % of control 19.2; inactive.
Depletion of Tph1 (GeneID 21990) #1 resulted in: GFP, % of control 72; viability (ATP), % of control 74.3; inactive.
With knock-down of Tph1 (GeneID 21990) #2 the results were GFP, % of control 62; viability (ATP), % of control 39.1; inactive.
After knock-down of Tph1 (GeneID 21990) #3, the record shows GFP, % of control 60.5; viability (ATP), % of control 65.5; inactive.
Depletion of Kcna2 (GeneID 16490) #1 resulted in: GFP, % of control 132; viability (ATP), % of control 78.6; active.
Against Kcna2 (GeneID 16490) #2 the deposit lists GFP, % of control 108; viability (ATP), % of control 54.9; inactive.
Kcna2 (GeneID 16490) #3 showed GFP, % of control 44; viability (ATP), % of control 80.3; inactive.
After knock-down of P2ry10 (GeneID 78826) #1, the screen gave GFP, % of control 117; viability (ATP), % of control 85.2; inactive.
After knock-down of P2ry10 (GeneID 78826) #2, the record shows GFP, % of control 133; viability (ATP), % of control 81.3; active.
P2ry10 (GeneID 78826) #3 gave GFP, % of control 64.1; viability (ATP), % of control 120; inactive.
Silencing of Fam24b (GeneID 69318) #1 resulted in: GFP, % of control 82.8; viability (ATP), % of control 97.6; inactive.
Against Fam24b (GeneID 69318) #2, the entry reads GFP, % of control 66.6; viability (ATP), % of control 88.6; inactive.
With knock-down of Fam24b (GeneID 69318) #3 the results were GFP, % of control 66.7; viability (ATP), % of control 74.6; inactive.
Depletion of Acp3 (GeneID 56318) #1 resulted in: GFP, % of control 75.9; viability (ATP), % of control 60.8; inactive.
Depletion of Acp3 (GeneID 56318) #2 came out at: GFP, % of control 135; viability (ATP), % of control 69.9; active.
Knock-down of Acp3 (GeneID 56318) #3 gave: GFP, % of control 103; viability (ATP), % of control 71.8; inactive.
Nsun4 (GeneID 72181) #1 gave GFP, % of control 88.2; viability (ATP), % of control 99.9; inactive.
With knock-down of Nsun4 (GeneID 72181) #2, the screen gave GFP, % of control 59.9; viability (ATP), % of control 75.3; inactive.
After knock-down of Nsun4 (GeneID 72181) #3, the record shows GFP, % of control 75; viability (ATP), % of control 81.2; inactive.

Already shown: 6 of the entries above.
Fbxw10 (GeneID 213980) #2 → GFP, % of control: 73.8; viability (ATP), % of control: 41.8; Call: inactive
Fbxw10 (GeneID 213980) #3 → GFP, % of control: 58.5; viability (ATP), % of control: 55.7; Call: inactive
Osbp2 (GeneID 74309) #1 → GFP, % of control: 84.8; viability (ATP), % of control: 90.3; Call: inactive
Osbp2 (GeneID 74309) #2 → GFP, % of control: 72.3; viability (ATP), % of control: 56.4; Call: inactive
Osbp2 (GeneID 74309) #3 → GFP, % of control: 116; viability (ATP), % of control: 133; Call: inactive
Bco1 (GeneID 63857) #1 → GFP, % of control: 49.2; viability (ATP), % of control: 62.8; Call: inactive
